At least one compound was matched to its structure with a doubt left.
Key:
[1] = system: THP-1 human monocytic cell line; experiment: In vitro cytokine release assay in LPS-stimulated THP-1 cells, Example 27; format: cell-based; conditions: 1 μg/mL candesartan; 500 ng/mL LPS
THP-1 cells = experiment: LPS-induced inflammation in THP-1 cells (MSD V-PLEX cytokines), Example 25; format: cell-based, human; conditions: summary in words
Method: A composition comprising […] was prepared as described in Example 23 and sterile filtered, referred to as Composition […]. 300,000 THP-1 cells were plated per well. Control wells included media only. Cells were contacted with LPS and test articles as outlined in Tables 20 and 21. For a positive control, cells were administered 1.0 μg/mL Candesartan. Candesartan is a […] and known to reduce the production of cytokines. Specifically, candesartan is an angiotensin receptor subtype 1 inhibitor and was utilized as a positive control. The cells were incubated for 1 hour. The cells were incubated, and samples of the supernatant were collected at 4 hours and 24 hours. The remaining cells were collected and analyzed for total cell count and percent viability. The Meso Scale Discovery (MSD; Rockville, […]) V-PLEX kit (4-PLEX) with IL-1b, IL-6, IL-8, and TNF-α were used to analyze the cytokines in the media at 4 and 24 hours after LPS stimulation.

Structure (SMILES): CCOc1nc2cccc(C(=O)O)c2n1Cc1ccc(-c2ccccc2-c2nnn[nH]2)cc1 [Candesartan]
- all cytokines (IL-1, IL-6, IL-8, TNF-α) [1]: inhibited
- LPS-induced cytokine production (THP-1 cells): fully reducing the production of cytokines

From US12576109B2, “Allogeneic human plasma and platelet derived products and uses thereof” (Consano Bio, Inc., priority 2024, dated 2026)
